PubChem BioAssay AID1224830, NIAID | 2016
Screen: 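Host factors that control LPS-induced TNF expression in human macrophages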 (primary screen). System: human THP-1 monocytic leukaemia cells, TNF dual-luciferase reporter clone, PMA-differentiated to macrophage-like cells. Reagent: siRNA pool against human genes, 50 nM. Timing: LPS for 4 h, given about 3 days after siRNA transfection. Treatment: bacterial LPS (TLR4 ligand), 10 ng/ml. Detection: 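Ratio of firefly to renilla light, scaled to the plate median and expressed as a robust z-score per replicate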. Reading the numbers: TNF reporter robust z-score: higher = stronger TNF reporter response to LPS. Active means: 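a well is active when its z-score exceeds 2.8 or falls below -1.5; control wells carry no call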.
The deposit covers about 18,000 reagents; below is a random part of them. About 2,900 of all reagents (16%) count as active. 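Calls are made per well; low scores hint the gene aids the LPS response, high scores that it dampens it.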 Entries without a mark were called inactive. Repeated entries: four replicate wells of each siRNA pool. No sequences are given here.

| gene knocked down | TNF reporter robust z-score |
| --- | --- |
| PIK3C2B | -0.9 |
| PIK3C2B | -0.8 |
| PIK3C2B | -0.25 |
| PIK3C2B | -0.31 |
| NME5 | -0.28 |
| NME5 | -0.49 |
| NME5 | -0.09 |
| NME5 | 0.22 |
| APBB3 | -1.08 |
| APBB3 | -0.7 |
| APBB3 | -1.02 |
| APBB3 | -0.61 |
| SENP5 | -0.14 |
| SENP5 | 3.44 (active) |
| SENP5 | 1.21 |
| SENP5 | -0.68 |
| CDH19 | -0.44 |
| CDH19 | 0.45 |
| CDH19 | -0.25 |
| ATF7 | -2.36 (active) |
| ATF7 | -2.23 (active) |
| ATF7 | -2.33 (active) |
| ATF7 | -1.97 (active) |
| DYRK3 | -1.86 (active) |
| DYRK3 | -2.04 (active) |
| DYRK3 | -1.9 (active) |
| DYRK3 | -1.23 |
| SLC35F1 | 0.11 |
| SLC35F1 | -0.16 |
| SLC35F1 | 0.62 |
| SLC35F1 | -1.05 |
| H2AB1 | -0.95 |
| H2AB1 | -0.31 |
| H2AB1 | -0.75 |
| H2AB1 | 0.26 |
| MAPRE3 | -0.95 |
| MAPRE3 | -0.02 |
| MAPRE3 | -0.85 |
| MAPRE3 | 0.15 |
| MARK4 | 1.75 |
| MARK4 | 0.75 |
| MARK4 | -0.28 |
| MARK4 | -0.04 |
| IRF5 | -0.86 |
| IRF5 | -0.22 |
| IRF5 | -0.6 |
| IRF5 | -0.19 |
| GNAO1 | -0.89 |
| GNAO1 | -0.25 |
| GNAO1 | -0.95 |
| GNAO1 | -0.93 |

Not a retest: 6 of the entries above.
| gene knocked down | TNF reporter robust z-score |
| --- | --- |
| SLC35F1 | -0.16 |
| SLC35F1 | 0.62 |
| SLC35F1 | -1.05 |
| H2AB1 | -0.95 |
| H2AB1 | -0.31 |
| H2AB1 | -0.75 |

Additional reagents follow.
| gene knocked down | TNF reporter robust z-score |
| --- | --- |
| GCC2 | 0.34 |
| GCC2 | 1.57 |
| GCC2 | 1.9 |
| GCC2 | -0.1 |
| LRRC4B | -0.13 |
| LRRC4B | 0.04 |
| LRRC4B | -0.6 |
| LRRC4B | -1.19 |
| SDC2 | 0.8 |
| SDC2 | -0.27 |
| SDC2 | -0.76 |
| SDC2 | -0.04 |
| C12orf57 | -0.97 |
| C12orf57 | -1.15 |
| C12orf57 | -1.46 |
| C12orf57 | -1.31 |
| RGL4 | -0.8 |
| RGL4 | 0.14 |
| RGL4 | -0.49 |
| RGL4 | -0.78 |
| DCBLD1 | -0.11 |
| DCBLD1 | 0.4 |
| DCBLD1 | 0.75 |
| DCBLD1 | 1.75 |
| MMP24 | -0.59 |
| MMP24 | -1.14 |
| MMP24 | -0.04 |
| MMP24 | -0.01 |
| FCGR3B | -0.89 |
| FCGR3B | -0.5 |
| FCGR3B | -1.14 |
| FCGR3B | -0.46 |
| GHRHR | 2.09 |
| GHRHR | 0.99 |
| GHRHR | 1.74 |
| GHRHR | -0.4 |
| PIERCE1 | -0.85 |
| PIERCE1 | -0.33 |
| PIERCE1 | -0.35 |
| PIERCE1 | 0 |
| AMOT | 1.22 |
| AMOT | 1.16 |
| AMOT | -0.2 |
| AMOT | 1.2 |
| TM9SF4 | -0.74 |
| TM9SF4 | -0.44 |
| TM9SF4 | -0.49 |
| TM9SF4 | -0.4 |
| CALU | 0.51 |
| CALU | -0.08 |
| CALU | 0.73 |
| CALU | 1.31 |
| SEC22C | -0.66 |
| SEC22C | -0.07 |
| SEC22C | -0.02 |
| SEC22C | -0.43 |
| CLCN6 | -1.05 |
| CLCN6 | -0.65 |
| CLCN6 | -1.79 (active) |
| CLCN6 | -1.67 (active) |
